We go through one substance from patent publication US20240189358A1.

By UniProt entry, the sequences of proteins in these tests, tags left out. Where a name states a change or a piece, a line headed by the entry shows the natural chain unless it says otherwise.
UniProt P10747: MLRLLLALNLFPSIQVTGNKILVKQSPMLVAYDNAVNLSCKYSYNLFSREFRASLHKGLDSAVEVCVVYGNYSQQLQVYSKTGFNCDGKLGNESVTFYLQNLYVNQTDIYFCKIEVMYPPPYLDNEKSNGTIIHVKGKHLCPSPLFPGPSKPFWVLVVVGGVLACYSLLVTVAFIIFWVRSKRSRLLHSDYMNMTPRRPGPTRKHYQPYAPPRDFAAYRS

The test addresses T1, mouse uPAR (mouse) (UniProt P35456).
T1 sequence (looked up): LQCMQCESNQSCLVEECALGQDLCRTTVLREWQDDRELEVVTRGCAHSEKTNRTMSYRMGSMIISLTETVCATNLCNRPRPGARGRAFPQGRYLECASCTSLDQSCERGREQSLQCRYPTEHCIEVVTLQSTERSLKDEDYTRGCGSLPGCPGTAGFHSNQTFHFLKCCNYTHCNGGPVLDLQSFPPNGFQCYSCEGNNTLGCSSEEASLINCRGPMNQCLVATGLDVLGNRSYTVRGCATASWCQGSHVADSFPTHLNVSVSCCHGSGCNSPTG
Put plainly: flow cytometry on NALM6 and Eµ-ALL01 cells engineered to overexpress mouse uPAR, against wild type cells.

Results are given in words; binding and its absence hold for the method and conditions named. Some entries that bind do so weakly or less than the wild type.

On to “m.uPAR-h.28z chimeric antigen receptor (human SFG-m.uPAR-h28z CAR) (from UniProt P10747 114-220; P20963 52-163)”, for which the binding entry is “binds”.
